Data as given in PubChem BioAssay AID1259425 (University of Nebraska Medical Center, 2018).

Aim: 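Seek colon cancer weak points whose silencing resembles KSR1 loss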 (primary screen)
Cells: HCT116 human colon cancer cells
Reagent: siRNA pool against human genes, 50 nM siRNA
Read-out: 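mRNA of six signature genes measured together by branched-DNA assay after 50 nM siRNA pool, blank removed, divided by geometric mean of two housekeeping genes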
Reading the numbers: BNIP3L mRNA: higher = more BNIP3L transcript after knockdown
The deposit covers about 14,000 reagents; shown is a random part of them. Further read-outs or replicates are left out here. The record does not give: the time to read-out.

What did the screen give for FOXO3 [SID363992717]?
BNIP3L mRNA, set 1: 0.117

For GRPR [SID363996230], how do the results read?
BNIP3L mRNA, set 1: 0.108

How did the screen score SRGAP2 [SID364005248]?
BNIP3L mRNA, set 1: 0.0741

What is on record for ALPG [SID364003598]?
BNIP3L mRNA, set 1: 0.146

For NUDT6 [SID363997812], how do the results read?
BNIP3L mRNA, set 1: 0.0568

For EFEMP2 [SID364000276], what does the deposit list?
BNIP3L mRNA, set 1: 0.173

Quoted from the entries so far for reference:
FOXO3 [SID363992717] → BNIP3L mRNA, set 1: 0.117
GRPR [SID363996230] → BNIP3L mRNA, set 1: 0.108
SRGAP2 [SID364005248] → BNIP3L mRNA, set 1: 0.0741

The results go on:
What is on record for BMX [SID363992942]?
BNIP3L mRNA, set 1: 0.201

With VANGL2 [SID364005220], what does the deposit list?
BNIP3L mRNA, set 1: 0.299

What is on record for RBBP7 [SID363994048]?
BNIP3L mRNA, set 1: 0.0859

For REPS1 [SID364003701], what does the deposit list?
BNIP3L mRNA, set 1: 0.131

For TBC1D2 [SID364001059], what was measured?
BNIP3L mRNA, set 1: 0.214

What did the screen give for PTTG1IP [SID363995328]?
BNIP3L mRNA, set 1: 0.0904

What is on record for SNRNP70 [SID363994233]?
BNIP3L mRNA, set 1: 0.112

With CASP7 [SID363992512], what was measured?
BNIP3L mRNA, set 1: 0.0449

For KLHL9 [SID364001220], what does the deposit list?
BNIP3L mRNA, set 1: 0.0339

What did the screen give for PPP4R1L [SID364005265]?
BNIP3L mRNA, set 1: 0.107

What did the screen give for CPSF7 [SID364003078]?
BNIP3L mRNA, set 1: 0.112

With ZDHHC13 [SID364001340], what does the deposit list?
BNIP3L mRNA, set 1: 0.075

What is on record for NOP56 [SID363997204]?
BNIP3L mRNA, set 1: 0.112
